Screening data, single-dose tests

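Whole-parasite assay of Trypanosoma brucei over 72 hours; the read-out is not stated. Tested at 30 µM. The record gives no direction; compounds that gave an IC50 in retests scored well above the rest, so higher reads as stronger inhibition. Values scatter widely below zero; nearly all retest evidence comes from the higher of the two concentrations used. About 64,000 compounds were tested under these conditions; 1.5% (about 940) showed 50% or more at least once.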

Each number is a percent effect as filed. How 0% and 100% were set is not recorded. Most values in the screen are low, and negative values occur. The compounds are a random part of those screened.

- CC(C)O[C@H]1CN(C(=O)CCN2CCCCO2)C[C@@H]1O : -14.02%
- CC(C)Oc1ccc(C(=O)N2CC[C@H](O)[C@@H](n3ccnc3)CC2)cc1 : 0.6961%
- OC(COCc1cccs1)CN1CCC(c2ccn[nH]2)CC1 (stereo not shown) : -46.2%
- Cc1csc2ncnc(N3CCC(Cn4cc(C(C)(C)N)nn4)CC3)c12 : 16.88%
- Cc1cc(CN(C)C(=O)c2ccc(F)cc2F)no1 : 6.334%
- C[C@@H]1CN(c2nc3c(cc2C(N)=O)CCC3)C[C@]1(C)O : -30.49%
- O=C(NCc1nc(NC2CCCC2)c2cc(Cl)ccc2n1)c1ccoc1 : -38.21%
- COc1cccc(Cn2ncc(N(C)CCc3ccccc3)cc2=O)c1 : 9.227%
- OCCOc1cc(F)ccc1NCc1ccc(F)c(F)c1 : -0.5724%
- COc1ccc(CN(C)[C@@H]2CN(S(=O)(=O)C(C)C)C[C@H]2O)cc1 : -3.151%
- Cc1ccnc(NC(=O)CCNC(=O)c2ccccc2Cl)c1 : -9.531%
- O=C(c1cocn1)N1CCC[C@]2(C[C@@H](OCC3CC3)CO2)C1 : -186.8%
- CCOC(C)c1noc(CN2CCCNCC2)n1 (stereo not shown) : 8.972%
- [H][C@]12CNC[C@@]1(C(=O)NCCc1ncccc1C)CN(S(C)(=O)=O)C2 : -3.125%
- CCC(C)(NCc1cccc(NC(C)=O)c1)c1nc(C)cs1 (stereo not shown) : -9.993%
- Cc1ccc(N2CCCC3(COCCN(c4ccccn4)C3)C2)nn1.O=C(O)C(F)(F)F (stereo not shown) : -47.84%
- CCN(Cc1cccc2c1OCO2)C(=O)NC1CC1 : 6.41%
- CCN(CC)S(=O)(=O)N1CCC(c2c(C(N)=O)sc3ccccc23)C1 (stereo not shown) : -4.8%
- CC1CCCCN1c1nc2c(c(=O)[nH]1)CCN(Cc1ccc(O)cc1)C2 (stereo not shown) : -9.811%
- Fc1ccc(N2CCOC3(COCCN(c4ncccn4)C3)C2)cc1.O=C(O)C(F)(F)F (stereo not shown) : -26.24%
- CCN(CC(=O)Nc1cc(Cl)ccc1C)C(=O)c1cnccn1 : -11.13%
- O=C(O)C(F)(F)F.[H][C@]12CCN(Cc3ccc(C)s3)CC[C@]1([H])N(S(C)(=O)=O)CCO2 : -57.38%
- O=C(NCCSCc1cccs1)C1CCCN(C(=O)N2CCCC2)C1 (stereo not shown) : -13.33%
- O=C(NCCc1nccs1)c1n[nH]c2c1CCC2 : 15.23%
- Cc1nn(C)c(C)c1C1CCCN1C(=O)c1cc[nH]n1 (stereo not shown) : -2.816%
- CCc1ccc(C(=O)NC2CCN(c3cnn(C)c3)C2=O)o1 (stereo not shown) : 18.44%
- Cc1ncc2c(n1)CN(CC(=O)Nc1cccnc1)CC2 : -9.289%
- O=C(O)C(F)(F)F.[H][C@@]12COC[C@H](C(=O)N3CCOCC3)[C@]1([H])CN(c1ncc(F)cn1)C2 : -65.04%
- Cc1cnc(CN(C)C2CCN(CC(=O)Nc3nncs3)C2)o1.O=C(O)C(F)(F)F (stereo not shown) : -46.56%
- Cn1ccnc1SC1CCc2ccccc2NC1=O (stereo not shown) : -21.36%
- Cc1ccsc1CNC(=O)NC1CCCc2c1cnn2CCO (stereo not shown) : 19.76%
- Cc1nnc(CN2C[C@H](NC(=O)CC3CCCC3)[C@@H](C3CC3)C2)s1 : -25.6%
- Cc1cc(CN(C)C(=O)c2ccc(Cl)c(N3CCCC3=O)c2)no1 : -43.64%
- NC(=O)CN1CCC(Nc2ccnc3ccc(Cl)cc23)CC1 : 62.45%
- COCc1noc(-c2ccc(N(C)Cc3ccc(C)o3)nc2)n1 : -9.901%
- COCCN(C)C[C@H]1CC[C@@H](Cc2ccc3c(cnn3C)c2)O1 : 3.085%
- Cc1cn(Cc2ccc(F)c(F)c2)nc1N : -25.26%
- CC(C)(C)c1c[nH]c([C@@H]2COCCN2C2CCOCC2)n1 : -56.45%
- CNC(=O)c1sc(C(NC(=O)c2ccccc2)C2CC2)nc1C (stereo not shown) : -51.03%
- CC(C)C[C@H](Nc1nc(C2CCCC2)nc2c1cnn2C)C(N)=O : -38.23%
- CCc1csc(C2CCCN(C(=O)c3c[nH]c(C)n3)C2)n1 (stereo not shown) : 17.91%
- Cc1ccc(NC2CCN(C(=O)Cc3ccc(C#N)cc3)CC2)nn1 : 23.05%
- CCn1cnnc1CNC(=O)N1CCN(c2nccs2)CC1 : -12.97%
- COCCc1nc(-c2cnn3c(C)cc(C)nc23)no1 : -20.46%
- O=C1CCCN1CCN1CCC(c2ccn[nH]2)CC1 : -20.4%

Some entries from above, unchanged:

With COc1ccc(CN(C)[C@@H]2CN(S(=O)(=O)C(C)C)C[C@H]2O)cc1 the screen gave -3.151%.
With O=C(O)C(F)(F)F.[H][C@@]12COC[C@H](C(=O)N3CCOCC3)[C@]1([H])CN(c1ncc(F)cn1)C2 the screen gave -65.04%.
With Cc1nnc(CN2C[C@H](NC(=O)CC3CCCC3)[C@@H](C3CC3)C2)s1 the screen gave -25.6%.
With OCCOc1cc(F)ccc1NCc1ccc(F)c(F)c1 the screen gave -0.5724%.

The values are deposited in ChEMBL (CHEMBL3988442, “University of Dundee, Small-Polar-MMV Screening Library” (2021)).